Results on 16 compounds are retold here after PubChem BioAssay AID2685 (National Center for Advancing Translational Sciences (NCATS), 2010).

One may read the AC50 as the concentration at which the activity in the assay is half-maximal.

A short description of this test: qHTS Assay for Lipid Storage Modulators in Drosophila S3 Cells.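 On cell number change: cells counted by Cell Tracker Red CMTPX staining in the red channel.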 The settings on record: BODIPY lipid droplet fluorescence, 18-24 h; for cell number change: measured here: cell count max response, cells fed with added oleic acid. Put shortly: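 Drosophila S3 cells got compounds at several concentrations plus oleic acid (400 uM solution). Laser-scanning cytometry with 488 nm excitation read lipid droplets at 500-530 nm and cells at 575-640 nm. Percent activity was relative to 20 uM Triacsin C.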
(Quantitative high-throughput screening tests each substance at several concentrations.)

Setting [1] is: measured here: cell number channel AC50, cells fed with added oleic acid.
Where [2] appears, read: measured here: lipid fluorescence (Fed channel) AC50, cells fed with added oleic acid.

The other results are listed elsewhere or left out. The main result of the screen is listed elsewhere. These columns were measured beside it and carry no call. Most of these compounds were active or inconclusive in the main read-out, so they are no random draw. The note in brackets gives the kind of curve behind each potency; many fits are weak.

Consider `O=C(NC1CCCCC1)[C@@H]1CSC2c3ccccc3C(=O)N21` (stereo partly drawn), for which the cell number change worked out at 2.39%.

For `Cc1nn(Cc2c(Cl)cccc2Cl)c(C)c1NC(=O)c1cnn2c(C(F)F)cc(-c3ccccc3)nc12`, the cell number change was -15.1%. Also, the AC50 under setting [1] was 0.184 µM [rising, full curve, poor fit].

As to `O=C(NC1CCCCC1)N1CCCCCCC1`, the cell number change came out at 12.6%. Moreover, the AC50 under setting [2] was 0.517 µM [falling, single point].

For `Cc1ccc(C(=O)N2CCN3C(=O)c4ccccc4C23c2ccc(Cl)cc2)cc1` (stereo not drawn), the cell number change came out at 38.7%. The AC50 under setting [1] was 10.3 µM [rising, partial curve]. The concentration at half-maximal activity (AC50) under setting [2] was 6.51 µM [rising, single point].

Turning to `O=C(Cn1c(=O)oc2ccccc21)Nc1cccc(Cl)c1`, the cell number change amounted to 8.74%. For the same compound, the AC50 under setting [2] is 29.1 µM [rising, single point].

In the case of `CCCc1cc(=O)oc2cc(OCC(=O)NC3CC(C)(C)NC(C)(C)C3)ccc12`, the cell number change came out at 11.5%.

As to `CCOc1ccc(N=C2SC(C(=O)Nc3ccccc3C#N)C(N)=C2C(=O)Nc2ccc(Cl)cc2)cc1` (stereo not drawn), the AC50 under setting [2] is 6.51 µM [falling, single point].

`CCOc1ccc(NC(=O)C2CCCN2S(=O)(=O)c2ccc3c(c2)C(C)(C)C(=O)N3C)cc1` (stereo not drawn): the cell number change is 11.7%. In addition, under setting [2], the AC50 is 29.1 µM [rising, single point].

Turning to `CCCCn1c(N)c(N(CCC(C)C)C(=O)C2=COCCO2)c(=O)[nH]c1=O`, the cell number change was -1.74%. The AC50 under setting [2] is 0.82 µM [falling, partial curve].

Turning to `CCC(CC)NC(=O)COC(=O)c1cccc(C)c1O`, the cell number change turned out to be 66.6%. Moreover, the AC50 under setting [1] is 16.4 µM [rising, single point]. Further, the AC50 under setting [2] was 0.00461 µM [rising, full curve, poor fit].

In the case of `Cc1ccc(S(=O)(=O)N/N=C\c2cc3c(cc2Br)OCO3)cc1`, the cell number change is 45.4%. The AC50 under setting [1] is 10.3 µM [rising, partial curve]. Besides, the AC50 under setting [2] is 9.2 µM [rising, partial curve].

For the compound `Nc1nnc(N2CCCCCC2)s1`, the cell number change stood at 15.1%. Also, the half-maximal activity concentration (AC50) under setting [2] was 4.11 µM [rising, single point].

With `COc1cc(/C=C/C(=O)OCC(=O)N2CCC(Cc3ccccc3)CC2)ccc1O`, the cell number change is 25.1%. For the same compound, under setting [2], the AC50 is 29.1 µM [rising, single point].

In the case of `Cc1cccc(CCNC(=O)COc2cc(=O)n(C)c3ccccc23)c1`, the cell number change is -48.6%. Further, under setting [1], the AC50 was 18.4 µM [falling, partial curve, poor fit]. Further, the AC50 under setting [2] was 0.326 µM [falling, full curve, poor fit].

As for `C=CCn1c(-c2cccn(Cc3cccc(Cl)c3)c2=O)n[nH]c1=S`, the cell number change is -11.5%. Further, under setting [2], the AC50 is 23.1 µM [falling, single point].

Turning to `O=C(/C=C/c1ccco1)NC(=S)Nc1nc(-c2ccc3ccccc3c2)cs1`, the cell number change was -2.19%. Besides, under setting [2], the AC50 is 9.2 µM [rising, single point].
